Measurements reported in US20250236666A1 (UNIVERSITE DE LILLE, published 2025).
No constants are given. Whether binding was seen depends on the method and setting. Some results given as binding are weak or reduced against the parent protein; the word gives no strength. No end group written: not given here. *: point of attachment. Biotin = O=C1N[C@H]2[C@H](CS[C@H]2CCCCC(=O)*)N1; C6spacer = C6 spacer

Key:
[1] = target: T1, Peptide 3 (Pore Forming 2) [biot]-[C6spacer]-… (human); experiment: dose-response ELISA on biotinylated peptide
T1 sequence (peptide, biotin and C6 spacer at the N-terminus ([biot]-[C6spacer]-)): DGPANYNVDLPFMYS

[2] = target: T1, Peptide 3 (Pore Forming 2) [biot]-[C6spacer]-… (human); experiment: specificity ELISA at 75 µg/mL-500 nM, target peptide against irrelevant peptide

B1: Monoclonal antibody P3-R4-E11 (antibody, human IgG1, kappa, V domains shown)
VH: EVQLVESGGSLVKPGGSLRLSCAASGFTFSNSGMNWVRQAPGKGLEWISGISGSSRYIGYADFVKGRFTISRDNAKNSLYLQMNSLRAEDTAVYYCVRSNYGGMDVWGRGTLVTVSS
VL: QSVLTQPASVSGSPGQSITISCAGTSSDVGGYGYVSWYQQHPGKAPKLMIYYDSYRPSGVSNRFSGSKSGNTASLTISGLQAEDEADYYCSSYTSQSTRVFGGGTKLEIKR
notes: scFv from phage display subcloned into Human IgG1 format, expressed in HEK293T
[1]
  binding: binds
[2]
  binding: binds
